The nature of the experiment: qHTS Assay for Lipid Storage Modulators in Drosophila S3 Cells.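 On cell number change: cells counted by Cell Tracker Red CMTPX staining in the red channel.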 Particulars: BODIPY lipid droplet fluorescence, 18-24 h; for cell number change: measured here: cell count max response, cells fed with added oleic acid. A digest of the protocol:
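Laser-scanning cytometry quantifies lipid droplet accumulation (500–530 nm total intensity; droplet/cell object ratio) in oleic acid-fed (400 uM added) Drosophila S3 cells treated with a concentration series. 20 uM Triacsin C defined 100% inhibition.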

Where [1] appears, read: measured here: cell number channel AC50, cells fed with added oleic acid.
Where [2] appears, read: measured here: lipid fluorescence (Fed channel) AC50, cells fed with added oleic acid.

Usually AC50 stands for the concentration at which the activity in the assay is half-maximal. A lower AC50 goes with activity at low concentration.

This is one part of the list. Further columns of the screen follow, without active or inactive calls. Compounds called inactive in the main read-out are mostly missing here. The note in brackets gives the kind of curve behind each potency; many fits are weak.

On to `CN(C)CCCC(C)(O)C(Cc1ccccc1)c1ccccc1` (stereo not given), for which the cell number change stood at 42.5%. The AC50 under setting [1] is 20.6 µM [rising, single point]. In addition, under setting [2], the AC50 was 18.4 µM [rising, single point].

In the case of `O=C(Nc1cccc2ccccc12)OCc1cncs1`, the cell number change is 16.3%.

For `COc1cc(C2C(C(C)=O)=C(O)C(=O)N2CCN2CCOCC2)ccc1O` (stereo not given), the cell number change was -78.1%. Under setting [1], the AC50 is 14.6 µM [falling, partial curve, poor fit]. Further, the AC50 under setting [2] was 1.16 µM [falling, full curve].

In the case of `O=C(Nc1nc2ccccc2n1Cc1ccc(Cl)cc1)c1ccco1`, the cell number change is 1.44%.

Regarding `OC(COCC(F)(F)C(F)(F)C(F)(F)C(F)F)Cn1c2ccccc2c2ccccc21` (stereo not given), the cell number change was -48.8%. Moreover, the AC50 under setting [1] is 29.1 µM [falling, single point].

Regarding `Cn1cnnc1SCc1ccccc1`, the cell number change is -42.5%. Moreover, under setting [1], the AC50 was 29.1 µM [falling, single point].

`CCc1ccc(-c2nc(CS(=O)CC(=O)NCCN3CCCCCC3)c(C)o2)cc1` (stereo not given): the cell number change was -34.9%. Further, the AC50 under setting [1] is 0.146 µM [falling, full curve, poor fit].

For the molecule `O=c1[nH]c(CSc2nnnn2-c2ccccc2)nc2ccccc12`, the AC50 under setting [2] was 5.62 µM [rising, single point].

For the molecule `O=C(N/N=C/C1CC2C=CC1C2)c1ccccc1O` (stereo not given), the cell number change is -11.3%.

In the case of `O=C1C=CCC(/C=C/c2ccccc2)O1` (stereo not given), the cell number change is -25.8%. Besides, under setting [2], the AC50 is 2.59 µM [falling, full curve, poor fit].

Consider `CC(C)(C)c1ccc(C(=O)N2CCC(C(=O)c3ccccc3)CC2)cc1`, for which the cell number change was -33%. In addition, the AC50 under setting [1] was 25.9 µM [falling, partial curve, poor fit]. Under setting [2], the AC50 is 16.4 µM [falling, partial curve, poor fit].

For the molecule `CC(C)n1c(=S)[nH]c2scc(-c3cccs3)c2c1=O`, the cell number change is -3.93%. Besides, under setting [2], the AC50 was 0.291 µM [falling, full curve, poor fit].

As to `COc1ccc2[nH]c(=O)c(CNc3cccc(C)c3)cc2c1`, the cell number change was -31.7%. In addition, the AC50 under setting [1] was 0.184 µM [falling, full curve]. In addition, under setting [2], the AC50 is 0.411 µM [falling, partial curve].

Regarding `Cc1ccc(Nc2nc(N)nc(CN3CCN(Cc4ccc5c(c4)OCO5)CC3)n2)c(C)c1`, the half-maximal activity concentration (AC50) under setting [1] is 5.8 µM [falling, single point] and the AC50 under setting [2] was 0.058 µM [rising, full curve, poor fit].

As for `COCCc1ncc(CN2CCCC(C(=O)Nc3cccc(-c4cccc(C)c4)c3)C2)cn1` (stereo not given), the cell number change is -13.3%. Moreover, the half-maximal activity concentration (AC50) under setting [2] is 29.1 µM [falling, single point].

In the case of `CC1CCCCN1C(=O)CCn1c(=O)oc2ccccc21` (stereo not given), the cell number change was -26.8%. Further, under setting [1], the AC50 was 0.092 µM [falling, full curve, poor fit].

With `N=c1c2c(ncn1Cc1ccco1)Oc1ccc3ccccc3c1C2c1ccccc1` (stereo not given), the AC50 under setting [1] is 6.51 µM [rising, single point] and the AC50 under setting [2] is 20.6 µM [falling, single point].

With `CC(C)(C)NC(=O)N1CCC(CO)(Cc2ccccc2Cl)CC1`, the cell number change was -45.9%. Besides, under setting [1], the concentration at half-maximal activity (AC50) is 29.1 µM [falling, single point]. The AC50 under setting [2] was 29.1 µM [falling, single point].

Take `Nc1cccc2c3c(oc12)CCCC3`: the cell number change is -23.2%. The AC50 under setting [2] is 0.58 µM [rising, single point].

For the molecule `NC(=O)CSc1nnc(-c2ccc([N+](=O)[O-])cc2)o1`, the cell number change was -44.4%. The AC50 under setting [1] was 0.651 µM [falling, full curve]. The AC50 under setting [2] was 0.731 µM [falling, full curve].

As for `CCCN(Cc1nnc(-c2cccs2)o1)C(=O)CN1C(=O)NC2(CCCCC2C)C1=O` (stereo not given), the cell number change was -34%. For the same molecule, the AC50 under setting [1] was 23.1 µM [falling, single point]. Also, the AC50 under setting [2] is 8.2 µM [rising, partial curve].

As for `CCCCC(c1nnnn1CC1CCCO1)N1CCN(c2nc3ccccc3s2)CC1` (stereo not given), the cell number change is -7.04%. Moreover, under setting [2], the AC50 is 4.61 µM [rising, partial curve].

`CSc1nsc(SCC(=O)Nc2ccc(NC(C)=O)cc2)n1`: the cell number change came to 3.42%.

Take `CCSc1ccccc1C(=O)NCc1ccco1`: the cell number change is 6.8%.

Regarding `FC(F)(F)c1cccc(N2CCN(CC3CC=CCC3)CC2)c1` (stereo not given), the cell number change is -27.5%. Also, the AC50 under setting [2] is 0.731 µM [falling, single point].

With `COc1ccc(-n2c(NCCN(C)C)nc3sc4c(c3c2=O)CCCCC4)cc1`, the cell number change stood at 4.89%. The AC50 under setting [1] was 0.13 µM [falling, full curve, poor fit].

Regarding `COc1cc(NC(=O)CN2C(=O)NC(CC(C)C)C2=O)cc(OC)c1OC` (stereo not given), the cell number change stood at 26.7%. Also, the AC50 under setting [1] was 2.31 µM [falling, single point]. Further, the AC50 under setting [2] was 3.26 µM [falling, single point].

`S=c1[nH]cnc2sc(-c3ccccc3)cc12`: the AC50 under setting [2] was 0.651 µM [rising, full curve, poor fit].

With `O=C(COC(=O)c1ccc(Cl)cc1O)NC(=O)C1CCCCC1`, the cell number change was found to be 3.42%. Besides, the AC50 under setting [2] was 4.61 µM [falling, single point].

`CCOC(=O)Cn1nnnc1CN(Cc1ccccc1)Cc1cc2cc(CC)ccc2[nH]c1=O`: the cell number change is -20.4%.

In the case of `Cc1ccc(C(=O)NC(C(=O)NC2CCCC2)c2ccccc2)cc1` (stereo not given), the cell number change is -3.15%. Moreover, the AC50 under setting [2] is 18.4 µM [rising, single point].

With `COc1ccc(C(C(=O)NC2CCCC2)N(C(=O)Cc2cccs2)C2CC2)cc1OC` (stereo not given), the cell number change was -6.58%.

Consider `COc1cc(Cc2ccc(N)c(OC)c2)ccc1N`, for which the cell number change amounted to 31.7%. The AC50 under setting [2] is 1.46 µM [rising, partial curve].

For `CC1(C)CC(=O)c2cn3c(nc2C1)nc1ccccc13`, the cell number change was -6.72%. Further, the AC50 under setting [1] is 0.92 µM [falling, full curve]. The AC50 under setting [2] is 0.00411 µM [falling, full curve, poor fit].

For `COc1cccc(OCc2nc3ncc(Br)cc3[nH]2)c1`, the cell number change was found to be 17.1%. For the same molecule, under setting [2], the AC50 is 0.00461 µM [rising, full curve, poor fit].

Take `Cc1nc(NC(=O)CSc2nnc(-c3ccc4c(c3)OCO4)o2)c(Cl)cc1Cl`: the cell number change came to 14.9%. In addition, the AC50 under setting [2] is 2.91 µM [rising, partial curve].

In the case of `O=C(O)c1ccc(Cl)c(S(=O)(=O)N2CCCC2)c1`, the cell number change was found to be 24.3%. Besides, under setting [2], the AC50 is 0.517 µM [rising, partial curve].

For `O=P(O)(CN1CCCCC1)CN1CCCCC1`, the cell number change was -89.9%. The AC50 under setting [2] was 20.6 µM [falling, partial curve].

Turning to `COC(=O)[C@@H]1CC(O)CN1C(=O)C12CC3CC(CC(C3)C1)C2` (stereo not given in full), the cell number change is -17.6%. Moreover, under setting [2], the AC50 is 8.2 µM [falling, partial curve, poor fit].

Consider `O=C1N=C(N2CCOCC2)S/C1=C1\C(=O)N(Cc2ccccc2)c2ccc(Br)cc21`, for which the cell number change came out at 7.07%.

In the case of `CNC(=O)NC(=O)CSc1nc2sccc2c(=O)n1-c1ccccc1`, the cell number change is -13.3%. For the same molecule, under setting [2], the AC50 is 6.51 µM [falling, single point].

Regarding `CC1CCCN(C(=O)c2cc3ccccc3cc2O)C1` (stereo not given), the cell number change was 37.6%.

Regarding `CC1CC(C)CN(C(=O)COC(=O)c2ccc[nH]c2=O)C1` (stereo not given), the cell number change was 0.54%. Further, the AC50 under setting [2] is 0.00411 µM [falling, full curve, poor fit].

For `COc1cccc(N2CC(NC(=O)C(=O)c3c(C)[nH]c4ccccc34)CC2=O)c1` (stereo not given), the cell number change came to 38%. Also, the AC50 under setting [1] was 0.58 µM [rising, partial curve].

As for `C=CCNC(=O)NC(=O)COC(=O)/C=C/c1cccc([N+](=O)[O-])c1`, the cell number change was -11.3%. The AC50 under setting [1] was 0.00461 µM [falling, full curve, poor fit]. Also, under setting [2], the AC50 is 16.4 µM [falling, partial curve].

Consider `Cc1noc(C)c1S(=O)(=O)N(CC(=O)N1CCCCCC1)c1ccc(C(C)C)cc1`, for which the cell number change turned out to be 2.5%. Further, the AC50 under setting [2] was 25.9 µM [falling, single point].

As to `C=CCn1cccc(C(=O)Nc2ccc(OC)c(Cl)c2)c1=O`, the cell number change turned out to be 16.8%.

On to `CC1CCCN(C(=O)c2ccc(S(=O)(=O)Nc3ccccc3Cl)cc2)C1` (stereo not given), for which the cell number change was -17.4%. The AC50 under setting [2] is 14.6 µM [falling, partial curve, poor fit].

In the case of `COc1ccc(CCNC(=O)Nc2ccccc2[N+](=O)[O-])cc1`, the cell number change turned out to be 111%. In addition, the AC50 under setting [1] was 16.4 µM [rising, partial curve]. Further, the AC50 under setting [2] is 25.9 µM [rising, single point].

Consider `O=C(Nc1cc(S(=O)(=O)N2CCCCC2)ccc1Cl)c1ccc(F)cc1`, for which the cell number change came out at 15.2%. Moreover, the AC50 under setting [1] is 6.51 µM [rising, single point]. For the same molecule, under setting [2], the AC50 was 6.51 µM [rising, partial curve, poor fit].

With `Cc1ccc(C)c(Cn2c(=O)n(C)c(=O)c3sccc32)c1`, the cell number change was determined as 35.1%. Under setting [1], the AC50 was 32.6 µM [rising, single point]. Moreover, the AC50 under setting [2] is 29.1 µM [rising, single point].

Turning to `O=C(CCc1nc2ccccc2[nH]1)NCc1ccc2c(c1)OCO2`, the cell number change is 30.7%. Moreover, the half-maximal activity concentration (AC50) under setting [1] was 0.731 µM [rising, full curve, poor fit].

As for `O=C(NNS(=O)(=O)c1ccc(C(=O)NC2CCCC2)cc1)c1ccncc1`, the cell number change was -49.8%. The AC50 under setting [1] is 25.9 µM [falling, single point]. Besides, under setting [2], the AC50 was 18.4 µM [falling, partial curve].

Consider `N#C/C(=C\c1ccc([N+](=O)[O-])cc1)C(=O)NCCCn1ccnc1`, for which the cell number change is 1.39%.

Take `Cn1c2c(c(=O)n(C)c1=O)C(c1cccc(F)c1)C(C#N)=C(N)O2` (stereo not given): the cell number change is -4.97%. In addition, the AC50 under setting [2] is 0.00651 µM [falling, full curve, poor fit].

With `O=C(CN1C2=NCCN2c2ccccc21)c1ccc(Br)cc1`, the cell number change stood at 12.3%. The AC50 under setting [2] is 5.17 µM [rising, full curve, poor fit].

Turning to `CCOC(=O)C1=C(CN2CCN(C(=O)c3ccco3)CC2)NC(=O)NC1c1ccc(C)cc1` (stereo not given), the cell number change is -14.9%. In addition, the concentration at half-maximal activity (AC50) under setting [2] was 6.51 µM [falling, single point].

With `COC(=O)c1ccccc1NC(=O)c1cnn2c(C(F)F)cc(C3CC3)nc12`, the AC50 is 0.58 µM [rising, single point] under setting [1] and 0.58 µM [rising, single point] under setting [2].

For the molecule `NC(=O)N/N=C/c1coc2ccc3ccccc3c2c1=O`, the cell number change is -56.5%. Besides, under setting [1], the AC50 is 10.3 µM [falling, partial curve]. In addition, the AC50 under setting [2] is 10.3 µM [falling, partial curve].

The values above are taken from PubChem BioAssay AID2685 (National Center for Advancing Translational Sciences (NCATS), 2010).
